# The supplement of paper PMC12067093, “Discovery and optimisation of a covalent ligand for TRIM25 and its application to targeted protein ubiquitination” (Chemical Science, 2025)
# Protein sequences, listed by entry. Tags and fused reporters are not part of them. Lines headed by an entry give the natural chain unless they say otherwise; changes in a name come on top.
# UniProt P11413, whole entry, looked up: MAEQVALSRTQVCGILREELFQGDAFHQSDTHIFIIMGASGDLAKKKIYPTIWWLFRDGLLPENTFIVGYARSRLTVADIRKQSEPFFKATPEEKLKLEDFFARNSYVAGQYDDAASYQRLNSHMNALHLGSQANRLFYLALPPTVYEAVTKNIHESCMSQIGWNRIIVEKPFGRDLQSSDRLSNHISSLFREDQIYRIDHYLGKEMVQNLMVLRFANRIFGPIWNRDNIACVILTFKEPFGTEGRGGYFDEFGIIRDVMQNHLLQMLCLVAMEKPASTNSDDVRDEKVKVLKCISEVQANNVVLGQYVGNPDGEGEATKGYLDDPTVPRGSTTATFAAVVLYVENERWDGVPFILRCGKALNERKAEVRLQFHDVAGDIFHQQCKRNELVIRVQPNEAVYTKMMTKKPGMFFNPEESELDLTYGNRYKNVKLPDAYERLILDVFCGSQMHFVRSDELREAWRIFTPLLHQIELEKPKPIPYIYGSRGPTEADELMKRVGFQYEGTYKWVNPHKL
# UniProt Q13451: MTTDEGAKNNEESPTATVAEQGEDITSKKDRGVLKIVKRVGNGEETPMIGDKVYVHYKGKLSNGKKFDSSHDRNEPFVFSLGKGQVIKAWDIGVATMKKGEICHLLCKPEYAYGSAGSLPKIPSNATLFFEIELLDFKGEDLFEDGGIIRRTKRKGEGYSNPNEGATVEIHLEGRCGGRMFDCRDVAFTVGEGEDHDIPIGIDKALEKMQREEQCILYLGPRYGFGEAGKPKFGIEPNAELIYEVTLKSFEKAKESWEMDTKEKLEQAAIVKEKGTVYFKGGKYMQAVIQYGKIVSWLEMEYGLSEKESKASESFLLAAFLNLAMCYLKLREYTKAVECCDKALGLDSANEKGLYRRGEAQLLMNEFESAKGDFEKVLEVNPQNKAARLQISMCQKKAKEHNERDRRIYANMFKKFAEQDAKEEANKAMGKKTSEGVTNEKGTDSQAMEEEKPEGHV
# UniProt Q14192: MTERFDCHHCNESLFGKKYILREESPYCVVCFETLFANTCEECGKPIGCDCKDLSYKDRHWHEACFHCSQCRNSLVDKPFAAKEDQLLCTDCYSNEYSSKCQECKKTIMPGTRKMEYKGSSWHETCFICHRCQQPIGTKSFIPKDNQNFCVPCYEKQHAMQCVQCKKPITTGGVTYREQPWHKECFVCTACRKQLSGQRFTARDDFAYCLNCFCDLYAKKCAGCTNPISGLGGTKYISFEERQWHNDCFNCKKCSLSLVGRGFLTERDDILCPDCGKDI
# UniProt O75369, whole entry, looked up: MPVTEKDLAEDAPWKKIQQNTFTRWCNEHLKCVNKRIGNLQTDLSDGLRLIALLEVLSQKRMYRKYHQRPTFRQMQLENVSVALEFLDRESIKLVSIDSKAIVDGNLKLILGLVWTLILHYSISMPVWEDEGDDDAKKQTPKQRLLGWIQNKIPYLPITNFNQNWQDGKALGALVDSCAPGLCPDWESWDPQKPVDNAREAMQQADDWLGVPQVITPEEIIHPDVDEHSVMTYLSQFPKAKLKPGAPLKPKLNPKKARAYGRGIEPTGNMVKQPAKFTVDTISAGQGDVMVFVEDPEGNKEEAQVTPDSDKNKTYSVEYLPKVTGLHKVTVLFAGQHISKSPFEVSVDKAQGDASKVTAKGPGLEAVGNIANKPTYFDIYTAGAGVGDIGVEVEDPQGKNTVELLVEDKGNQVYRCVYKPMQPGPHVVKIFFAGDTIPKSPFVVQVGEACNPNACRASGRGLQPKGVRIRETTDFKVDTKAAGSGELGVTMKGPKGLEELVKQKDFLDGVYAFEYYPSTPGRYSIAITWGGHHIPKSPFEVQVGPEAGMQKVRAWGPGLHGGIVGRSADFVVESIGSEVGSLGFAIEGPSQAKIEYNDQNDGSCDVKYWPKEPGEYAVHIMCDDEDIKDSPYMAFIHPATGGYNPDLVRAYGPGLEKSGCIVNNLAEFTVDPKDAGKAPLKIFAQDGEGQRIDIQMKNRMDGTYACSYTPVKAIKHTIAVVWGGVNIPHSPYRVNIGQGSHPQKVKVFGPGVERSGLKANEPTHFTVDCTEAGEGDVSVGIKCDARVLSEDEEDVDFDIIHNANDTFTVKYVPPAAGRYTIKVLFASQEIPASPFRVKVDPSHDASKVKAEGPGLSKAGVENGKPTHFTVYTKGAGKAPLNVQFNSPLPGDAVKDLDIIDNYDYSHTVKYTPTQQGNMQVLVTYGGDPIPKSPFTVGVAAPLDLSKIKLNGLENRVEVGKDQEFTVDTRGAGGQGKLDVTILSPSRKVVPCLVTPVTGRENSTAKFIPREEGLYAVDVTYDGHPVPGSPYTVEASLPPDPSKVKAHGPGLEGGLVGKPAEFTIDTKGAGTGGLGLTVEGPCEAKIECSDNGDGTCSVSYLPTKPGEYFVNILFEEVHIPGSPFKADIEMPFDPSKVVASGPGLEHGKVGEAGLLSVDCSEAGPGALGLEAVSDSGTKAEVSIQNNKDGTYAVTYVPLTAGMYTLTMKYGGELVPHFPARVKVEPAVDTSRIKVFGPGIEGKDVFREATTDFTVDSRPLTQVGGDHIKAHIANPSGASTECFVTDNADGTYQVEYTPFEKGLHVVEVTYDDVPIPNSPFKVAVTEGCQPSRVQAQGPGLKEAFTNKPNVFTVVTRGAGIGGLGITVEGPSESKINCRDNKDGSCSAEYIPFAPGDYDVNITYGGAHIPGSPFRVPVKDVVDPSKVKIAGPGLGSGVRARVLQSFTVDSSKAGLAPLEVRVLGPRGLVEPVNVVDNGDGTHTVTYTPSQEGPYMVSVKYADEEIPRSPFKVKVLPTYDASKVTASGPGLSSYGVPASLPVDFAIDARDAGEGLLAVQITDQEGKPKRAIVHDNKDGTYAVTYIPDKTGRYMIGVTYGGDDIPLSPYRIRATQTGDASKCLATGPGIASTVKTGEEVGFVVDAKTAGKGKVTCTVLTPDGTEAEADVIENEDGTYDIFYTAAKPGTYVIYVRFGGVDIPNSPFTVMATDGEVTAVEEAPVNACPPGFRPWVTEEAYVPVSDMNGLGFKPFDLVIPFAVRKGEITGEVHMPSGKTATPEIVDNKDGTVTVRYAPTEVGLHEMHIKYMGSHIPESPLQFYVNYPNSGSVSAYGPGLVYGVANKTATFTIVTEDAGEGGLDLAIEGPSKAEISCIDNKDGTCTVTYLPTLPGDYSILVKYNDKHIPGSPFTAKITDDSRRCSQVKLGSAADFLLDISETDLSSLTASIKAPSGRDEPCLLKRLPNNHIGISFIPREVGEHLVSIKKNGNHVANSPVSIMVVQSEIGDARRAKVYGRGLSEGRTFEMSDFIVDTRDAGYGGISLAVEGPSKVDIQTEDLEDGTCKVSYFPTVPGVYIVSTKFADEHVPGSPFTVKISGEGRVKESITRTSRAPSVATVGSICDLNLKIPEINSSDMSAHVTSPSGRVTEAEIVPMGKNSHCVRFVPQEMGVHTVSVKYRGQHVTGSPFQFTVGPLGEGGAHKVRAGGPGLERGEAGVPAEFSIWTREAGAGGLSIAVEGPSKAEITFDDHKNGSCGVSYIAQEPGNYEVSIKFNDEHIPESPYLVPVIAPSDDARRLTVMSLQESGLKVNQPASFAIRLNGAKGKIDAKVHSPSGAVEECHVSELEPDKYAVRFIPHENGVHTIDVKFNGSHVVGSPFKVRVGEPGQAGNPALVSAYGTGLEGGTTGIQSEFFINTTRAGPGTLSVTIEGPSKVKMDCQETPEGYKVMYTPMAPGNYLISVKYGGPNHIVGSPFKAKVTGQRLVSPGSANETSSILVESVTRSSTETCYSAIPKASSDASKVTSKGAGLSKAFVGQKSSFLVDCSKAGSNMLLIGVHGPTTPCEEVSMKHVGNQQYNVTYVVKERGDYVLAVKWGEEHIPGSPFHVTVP
# UniProt Q96CU9: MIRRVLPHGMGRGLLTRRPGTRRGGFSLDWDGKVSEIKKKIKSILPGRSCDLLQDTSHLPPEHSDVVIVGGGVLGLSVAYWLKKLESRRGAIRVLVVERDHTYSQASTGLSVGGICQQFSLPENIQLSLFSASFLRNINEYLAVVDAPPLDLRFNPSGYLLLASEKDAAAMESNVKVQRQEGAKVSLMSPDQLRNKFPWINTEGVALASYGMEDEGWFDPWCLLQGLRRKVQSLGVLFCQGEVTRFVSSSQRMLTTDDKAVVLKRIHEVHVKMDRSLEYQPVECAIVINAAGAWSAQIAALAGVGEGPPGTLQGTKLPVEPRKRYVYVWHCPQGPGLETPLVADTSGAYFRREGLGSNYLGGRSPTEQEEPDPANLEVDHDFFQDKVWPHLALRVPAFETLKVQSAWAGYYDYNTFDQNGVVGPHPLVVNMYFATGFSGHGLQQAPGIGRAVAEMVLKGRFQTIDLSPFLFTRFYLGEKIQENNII
# UniProt Q53EP0: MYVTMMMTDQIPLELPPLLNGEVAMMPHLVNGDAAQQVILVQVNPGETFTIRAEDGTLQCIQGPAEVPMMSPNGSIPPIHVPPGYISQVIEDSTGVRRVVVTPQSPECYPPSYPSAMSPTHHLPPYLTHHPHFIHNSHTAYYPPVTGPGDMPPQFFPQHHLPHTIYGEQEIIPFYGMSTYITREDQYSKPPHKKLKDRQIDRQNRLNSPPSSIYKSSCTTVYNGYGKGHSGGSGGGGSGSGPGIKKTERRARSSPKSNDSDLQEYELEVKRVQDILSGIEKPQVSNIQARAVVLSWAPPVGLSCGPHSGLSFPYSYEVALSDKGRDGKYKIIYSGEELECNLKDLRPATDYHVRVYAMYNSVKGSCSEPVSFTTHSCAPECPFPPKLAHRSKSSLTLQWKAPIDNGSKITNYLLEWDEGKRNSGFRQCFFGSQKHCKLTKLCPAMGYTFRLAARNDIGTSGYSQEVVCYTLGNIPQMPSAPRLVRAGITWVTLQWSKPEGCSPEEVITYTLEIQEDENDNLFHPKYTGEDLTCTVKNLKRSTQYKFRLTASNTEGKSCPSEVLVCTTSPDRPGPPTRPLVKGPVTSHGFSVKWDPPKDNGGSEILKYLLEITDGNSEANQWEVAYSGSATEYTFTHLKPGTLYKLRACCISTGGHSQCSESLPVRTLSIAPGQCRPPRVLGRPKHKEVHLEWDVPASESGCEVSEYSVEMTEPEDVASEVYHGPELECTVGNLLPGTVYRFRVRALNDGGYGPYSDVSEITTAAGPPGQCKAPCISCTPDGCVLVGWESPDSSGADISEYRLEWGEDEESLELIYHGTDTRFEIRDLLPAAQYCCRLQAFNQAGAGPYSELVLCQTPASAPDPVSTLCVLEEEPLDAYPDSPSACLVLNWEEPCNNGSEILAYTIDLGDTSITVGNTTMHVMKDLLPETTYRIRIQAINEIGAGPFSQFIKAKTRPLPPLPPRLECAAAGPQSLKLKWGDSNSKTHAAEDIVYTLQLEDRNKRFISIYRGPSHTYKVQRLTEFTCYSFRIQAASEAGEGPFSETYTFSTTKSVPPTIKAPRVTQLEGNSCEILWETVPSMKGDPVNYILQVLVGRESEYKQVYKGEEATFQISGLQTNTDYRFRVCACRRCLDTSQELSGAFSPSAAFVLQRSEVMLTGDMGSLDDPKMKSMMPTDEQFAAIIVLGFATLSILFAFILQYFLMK
# UniProt Q06546: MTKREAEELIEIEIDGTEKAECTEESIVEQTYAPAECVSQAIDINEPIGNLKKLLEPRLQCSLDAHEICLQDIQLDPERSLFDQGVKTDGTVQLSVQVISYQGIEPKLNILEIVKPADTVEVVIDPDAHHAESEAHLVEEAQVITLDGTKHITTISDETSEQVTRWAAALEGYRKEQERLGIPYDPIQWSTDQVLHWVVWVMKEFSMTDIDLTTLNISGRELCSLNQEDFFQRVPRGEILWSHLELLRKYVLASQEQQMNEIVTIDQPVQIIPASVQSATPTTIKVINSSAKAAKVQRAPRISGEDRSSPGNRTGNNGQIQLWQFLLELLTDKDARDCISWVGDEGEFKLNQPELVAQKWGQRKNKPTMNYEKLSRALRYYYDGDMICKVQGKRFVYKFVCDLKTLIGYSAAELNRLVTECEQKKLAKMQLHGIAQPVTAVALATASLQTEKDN
# UniProt Q96I24: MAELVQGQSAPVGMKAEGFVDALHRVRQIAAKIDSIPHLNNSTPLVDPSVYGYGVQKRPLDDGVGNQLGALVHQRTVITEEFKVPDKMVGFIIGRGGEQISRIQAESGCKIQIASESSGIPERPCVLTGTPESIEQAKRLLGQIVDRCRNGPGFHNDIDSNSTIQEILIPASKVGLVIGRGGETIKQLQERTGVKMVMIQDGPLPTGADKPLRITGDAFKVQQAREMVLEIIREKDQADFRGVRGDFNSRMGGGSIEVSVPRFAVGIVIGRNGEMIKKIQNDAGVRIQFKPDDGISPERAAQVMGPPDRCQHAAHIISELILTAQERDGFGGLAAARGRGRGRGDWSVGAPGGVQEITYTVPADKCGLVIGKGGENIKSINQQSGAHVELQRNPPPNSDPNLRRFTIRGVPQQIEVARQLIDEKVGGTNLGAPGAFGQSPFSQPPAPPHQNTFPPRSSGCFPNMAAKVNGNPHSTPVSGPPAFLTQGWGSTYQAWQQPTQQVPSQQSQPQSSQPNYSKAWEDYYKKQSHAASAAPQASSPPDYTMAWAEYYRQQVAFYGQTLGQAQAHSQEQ
# This is one part of the list.
# Compound: Cc1cc(ccc1-c1ccccc1)C(=O)N1CCCN(CC1)C(=O)CCl [compound 10]
# Experiment: probe-labelled cysteine peptide fold change vs DMSO (competition) (log2 fold change); higher = less target engagement (more negative = stronger competition)
# Conditions: 50 µM; THP-1; incubation time: 4 h
# 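Further: competitive profiling in live THP-1 cells: cysteine peptides tagged with an iodoacetamide desthiobiotin (IA-DTB) probe, intensity after compound treatment relative to DMSO-treated cells.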
row,Target,probe-labelled cysteine peptide fold change
1,G6PD_P11413_446_LILDVFCGSQMHFVR (UniProt P11413),0.117
2,FHOD1_Q9Y613_936_LTHFLDQCAR (UniProt Q9Y613),0.212
3,FN1_P02751_461_FGFCPMAAHEEICTTNEGVMYR (UniProt P02751),-0.0929
4,FKBP5_Q13451_215_EEQCILYLGPR (UniProt Q13451),-0.143
5,FHOD1_Q9Y613_43_RAPTCSLDGALPLGAQIPAVHR (UniProt Q9Y613),-0.0577
6,FTO_Q9C0B1_249_SAVAVYSYSCEGPEEESEDDSHLEGRDPDIWHVGFK (UniProt Q9C0B1),-0.335
7,FRA10AC1_Q70Z53_175_GQFFCGNK (UniProt Q70Z53),-0.0768
8,FHL2_Q14192_254_CSLSLVGR (UniProt Q14192),-0.551
9,FHL2_Q14192_275_GFLTERDDILCPDCGK (UniProt Q14192),-0.163
10,FLNB_O75369_2537_SSFLVDCSK (UniProt O75369),0.0149
11,GAB2_Q9UQC2_303_TPSNTLCR (UniProt Q9UQC2),-0.252
12,FOXRED1_Q96CU9_239_KVQSLGVLFCQGEVTR (UniProt Q96CU9),0.122
13,G6PD_P11413_385_LQFHDVAGDIFHQQCK (UniProt P11413),-0.0589
14,FLNB_O75369_2556_AGSNMLLIGVHGPTTPCEEVSMK (UniProt O75369),0.0907
15,FYCO1_Q9BQS8_848_AHVQELLQCSER (UniProt Q9BQS8),-0.154
16,FSCN1_Q16658_61_QIWTLEQPPDEAGSAAVCLR (UniProt Q16658),0.149
17,GALK2_Q01415_379_DMYECSCPELDQLVDICR (UniProt Q01415),-0.0385
18,FNDC3B_Q53EP0_558_SCPSEVLVCTTSPDRPGPPTRPLVK (UniProt Q53EP0),-0.0216
19,GABPA_Q06546_61+69_LQCSLDAHEICLQDIQLDPER (UniProt Q06546),-0.128

# Single entries from the entries so far.
# In probe-labelled cysteine peptide fold change, FOXRED1_Q96CU9_239_KVQSLGVLFCQGEVTR (UniProt Q96CU9) is listed with 0.122
# In probe-labelled cysteine peptide fold change, FSCN1_Q16658_61_QIWTLEQPPDEAGSAAVCLR (UniProt Q16658) is listed with 0.149
# In probe-labelled cysteine peptide fold change, GABPA_Q06546_61+69_LQCSLDAHEICLQDIQLDPER (UniProt Q06546) is listed with -0.128

# Next part.

row,Target,probe-labelled cysteine peptide fold change
1,FTSJ3_Q8IY81_294_ASEIMVDDEELAQHPATTEDIRVCCQDIR (UniProt Q8IY81),-0.136
2,FLNB_O75369_1876_DGTCTVTYLPTLPGDYSILVK (UniProt O75369),0.0655
3,FKBP8_Q14318_195_SPYIPPHAALCLEVTLK (UniProt Q14318),0.898
4,GABPA_Q06546_338_DCISWVGDEGEFK (UniProt Q06546),0.0327
5,FRY_Q5TBA9_2494_CDMQILEER (UniProt Q5TBA9),-0.225
6,FOCAD_Q5VW36_758_IRPEIPIPEELDDDEDVEDVDLSVPGSCYLK (UniProt Q5VW36),0.0745
7,FLCN_Q8NFG4_215_VFEAEQFGCPQR (UniProt Q8NFG4),-0.54
8,FUBP3_Q96I24_125_IQIASESSGIPERPCVLTGTPESIEQAK (UniProt Q96I24),0.314
9,FOS_P01100_204_EKLEFILAAHRPACK (UniProt P01100),1.53
10,GABPB1_Q06547-3_355_SLLPGVLCR (UniProt Q06547),-0.515
11,FLNB_O75369_1617_CLATGPGIASTVK (UniProt O75369),0.231
12,FOXK1_P85037_665_VCEVGPK (UniProt P85037),-0.249
13,FOXM1_Q08050_56_EVAESNSCK (UniProt Q08050),-0.806
14,G6PD_P11413_385_LQFHDVAGDIFHQQCKR (UniProt P11413),-0.683
15,FIP1L1_Q6UN15_216_ITAEDCTMEVTPGAEIQDGR (UniProt Q6UN15),0.0481
16,FNDC3B_Q53EP0_1025_LTEFTCYSFR (UniProt Q53EP0),0.271
17,FUBP3_Q96I24_125_IQIASESSGIPERPCVLTGTPESIEQAKR (UniProt Q96I24),-0.248
18,FKBP5_Q13451_107_KGEICHLLCKPEYAYGSAGSLPK (UniProt Q13451),-0.583
19,FLNB_O75369_1081_GAGTGGLGLTVEGPCEAK (UniProt O75369),0.0226
